Results are given in words; binding and its absence hold for the method and conditions named. Some entries that bind do so weakly or less than the wild type.
Target: cynomolgus monkey TIM-3 recombinant protein (Acro) (cynomolgus monkey)
Assay: ELISA on recombinant protein

B1: humanized anti-TIM-3 antibody h50B5 (antibody, human IgG4 S228P, kappa, V domains shown)
VH: QVQLVQSGAEVKKPGASVKVSCKASGYSFTGYTINWVRQAPGQGLEWMGLFNPYNGGTTYAQKFQGRVTMTVDKSTSTVYMELSSLRSEDTAVYYCARRYYGYDAMDYWGQGTLVTVSS
VL: DIQMTQSPSSLSASVGDRVTITCKSSQSVLYSSNQKNHLAWYQQKPGKAPKLLIYWASTRESGVPSRFSGSGSGTDFTLTISSLQPEDFATYYCHQYLSSYTFGQGTKLEIKR
notes: Humanized from mouse mAb 50B5 by CDR grafting; human IgG4 heavy chain constant region and human light chain constant region
binding: binds
